Among the test systems are APPL2 (human); AQP5 (human); ARF4 (human); ARF5 (human); ARFIP2 (human); ARHGDIB (human); ARID3B (human); ARL1 (human); ARL3 (human).
What all share (experiment): protein microarray (ProtoArray v5.0), streptavidin-Alexa Fluor 647
What all share (settings): 3'-biotin; 20 mM Tris (pH 7.5), 5 mM MgCl2, 100 mM KCl, 0.1% Tween-20, A/T-rich and random oligonucleotide blockers; temperature not stated; high values mean tight binding

The target in another experiment is T1, AQP8 (UniProt O94778).
T1 sequence: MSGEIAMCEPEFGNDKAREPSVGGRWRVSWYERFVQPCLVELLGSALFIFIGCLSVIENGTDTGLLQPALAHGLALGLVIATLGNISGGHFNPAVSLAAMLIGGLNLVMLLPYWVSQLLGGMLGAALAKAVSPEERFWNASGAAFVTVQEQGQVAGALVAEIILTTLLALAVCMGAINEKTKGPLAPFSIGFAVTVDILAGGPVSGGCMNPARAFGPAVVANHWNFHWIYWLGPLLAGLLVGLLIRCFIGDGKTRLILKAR

This is one part of the list. For some of these results: The exact form of the protein is not confirmed.

Consider “GGTGACAGGGGTATGGGGAGGGG [G4-2 biotinylated (Ct1)]”, for which the binding signal in the experiment on APPL2 (human) is -0.376 z-score; in the experiment on AQP5 (human), -0.39 z-score; with AQP8, -0.392 z-score; in the experiment on ARF4 (human), -0.391 z-score; in the experiment on ARF5 (human) it was -0.385 z-score; in the experiment on ARFIP2 (human), -0.397 z-score. The binding signal with ARHGDIB (human) is -0.381 z-score; with ARID3B (human) it was -0.39 z-score; in the experiment with ARL1 (human), -0.365 z-score; with ARL3 (human), -0.376 z-score.

The record behind these values is paper PMC5996148.
